2 molecules from PMC7317789 can be followed below.

Results are given in words; binding and its absence hold for the method and conditions named. For some assays here: In cells and extracts the contact can be indirect. Some entries that bind do so weakly or less than the wild type. Sequences can lack the tags named with a protein.

Assay [1] has as its target SMALL LEAF AND BUSHY1 (SLB1), Gal4 DNA-binding domain fusion in pGBKT7 (Medicago truncatula). Briefly: two-hybrid; Matchmaker Gold System; SLB1 in pGBKT7, MtASK1, MtASK2 and BS1 in pGADT7; yeast strain Y2H Gold; growth on SD/-Trp/-Leu/-His/-Ade (QDO), dark, 28°C, 3 d.
The target of assay [2] is SLB1 fused to the N-terminal half of YFP (SLB1-nYFP) (Medicago truncatula). Briefly: split reporter; BiFC with split YFP in agro-infiltrated N. benthamiana leaf epidermal cells; SLB1-nYFP with cYFP fusions; fluorescence observed 48-60 h after infiltration, confocal microscope.

B1: BIG SEEDS1 (BS1), Gal4 activation domain fusion in pGADT7 (protein, UniProt A0A190V5K9 1-330)
chain: MNGGSTVSFRSILDRPLNQLTEDDISQLTREDCRRFLKDKGMRRPSWNKSQAIQQVISLKALLEPTDDDIPATVGVGVSSAIHHHHHHHPPQPPPKALDPEDTALELQKSTSPVAERPTETNDANVVNNPGGCAPSGSFGQMTIFYCGKVNVYDGVSPDKARSIMQLAAACPSSFPQDNPSNKNAAVWASPCNLPIDKEVLFPTDTAILQVAQTDKMVEYPLQYREKGSTARDADVEGQASRKVSLQRYLEKRKDRGRSKGKKLTGITSSNFEMYLNLPVKLHASNGNSSRSSTDSPPQPRLPLVSSGSAENQPKVTLPIDLNDKDVQEC
In the case of B1, the binding result in assay [1] was “binds”.

B2: BS1 fused to the C-terminal half of YFP (BS1-cYFP) (protein, UniProt A0A190V5K9 1-330)
chain: B1 chain
Turning to B2, the binding entry in assay [2] is listed as “binds”.
